PubChem BioAssay AID652259, Drosophila RNAi Screening Center | 2013

- Assay: 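Identify new Wingless signalling regulators in fly cells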 (primary screen)
- Cells: Drosophila clone 8 imaginal disc epithelial cells
- Knock-down reagent: long dsRNA against Drosophila genes
- Conditions: pathway stimulated by co-transfected Wingless expression plasmid
- Measurement: 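Firefly luciferase from a tcf-site Wingless reporter, measured alongside co-transfected Renilla luciferase that tracks transfection; pathway stimulated by a Wingless plasmid; the firefly-to-Renilla ratio is not deposited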
- Reading the numbers: firefly reporter light: higher = more Wg reporter light, before normalisation; Renilla control light: higher = more transfected or surviving cells
- Hit rule: 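a knock-down is a candidate when at least two out of four statistical tests show it departing from its plate mean; one test alone signals a weak candidate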
- Meaning of the calls: active = candidate regulator (raises or lowers reporter); inactive = not a candidate
The deposit covers about 22,000 reagents; below is a random part of those with a known target gene and a result. In the full data, 233 (1.1%) were called active. 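Light values are raw, unnormalised plate reads; the ratio scores behind the reporter calls were not deposited.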 A plus sign joins genes that one reagent is predicted to hit. Not stated in the record: the amount of reagent, the time to read-out, the dose of the treatment.

Which result is listed for Wee1 (Wee1 kinase) [DRSC03635]?
firefly reporter light, replicate 1: 3496; firefly reporter light, replicate 2: 7706; Renilla control light, replicate 1: 1106; Renilla control light, replicate 2: 1418; activity call: inactive

For l(3)72Dn (lethal (3) 72Dn) [DRSC10468], what does the deposit list?
firefly reporter light, replicate 1: 4452; Renilla control light, replicate 1: 2059; activity call: inactive

Which result is listed for Nagk (N-acetylglucosamine kinase) [DRSC15994]?
firefly reporter light, replicate 1: 4930; Renilla control light, replicate 1: 2357; activity call: inactive

What is on record for d4 [DRSC04881]?
firefly reporter light, replicate 1: 21368; Renilla control light, replicate 1: 8252; activity call: inactive

For d4 [DRSC22674], how do the results read?
firefly reporter light, replicate 1: 4.89e5; firefly reporter light, replicate 2: 5.09e5; Renilla control light, replicate 1: 2.06e5; Renilla control light, replicate 2: 67536; activity call: inactive

What is on record for CG10898 [DRSC14279]?
firefly reporter light, replicate 1: 5955; Renilla control light, replicate 1: 2450; activity call: inactive

What is on record for CCT2 (Chaperonin containing TCP1 subunit 2) [DRSC18415]?
firefly reporter light, replicate 1: 2393; firefly reporter light, replicate 2: 3618; Renilla control light, replicate 1: 658; Renilla control light, replicate 2: 1392; activity call: inactive

How did the screen score Cpr65Ax2 + Cpr65Ax1 [DRSC10341]?
firefly reporter light, replicate 1: 3865; firefly reporter light, replicate 2: 11073; Renilla control light, replicate 1: 1452; Renilla control light, replicate 2: 4171; activity call: inactive

With Cpr65Ax2 + Cpr65Ax1 [DRSC10344], what was measured?
firefly reporter light, replicate 1: 1447; firefly reporter light, replicate 2: 9334; Renilla control light, replicate 1: 1169; Renilla control light, replicate 2: 4029; activity call: inactive

Which result is listed for eIF2A (eukaryotic translation initiation factor 2A) [DRSC11825]?
firefly reporter light, replicate 1: 5222; Renilla control light, replicate 1: 2217; activity call: inactive

For Alg1 (ALG1, chitobiosyldiphosphodolichol beta-mannosyltransferase) [DRSC15297], how do the results read?
firefly reporter light, replicate 1: 2486; firefly reporter light, replicate 2: 8517; Renilla control light, replicate 1: 1445; Renilla control light, replicate 2: 2221; activity call: inactive

For Obsc (Obscurin) [DRSC04301], what does the deposit list?
firefly reporter light, replicate 1: 5004; Renilla control light, replicate 1: 1301; activity call: inactive

For Obsc (Obscurin) [DRSC04302], how do the results read?
firefly reporter light, replicate 1: 13424; Renilla control light, replicate 1: 3040; activity call: inactive

For Obsc (Obscurin) [DRSC04303], how do the results read?
firefly reporter light, replicate 1: 2021; firefly reporter light, replicate 2: 7536; Renilla control light, replicate 1: 729; Renilla control light, replicate 2: 2791; activity call: inactive

With Obsc (Obscurin) [DRSC04430], what does the deposit list?
firefly reporter light, replicate 1: 1722; firefly reporter light, replicate 2: 4422; Renilla control light, replicate 1: 416; Renilla control light, replicate 2: 2098; activity call: inactive

What did the screen give for Obsc (Obscurin) [DRSC22422]?
firefly reporter light, replicate 1: 7.35e5; firefly reporter light, replicate 2: 7.09e5; Renilla control light, replicate 1: 3.68e5; Renilla control light, replicate 2: 3.14e5; activity call: inactive

Which result is listed for CG10265 [DRSC05986]?
firefly reporter light, replicate 1: 11749; Renilla control light, replicate 1: 3707; activity call: inactive

With CG10265 [DRSC21680], how do the results read?
firefly reporter light, replicate 1: 8.55e5; firefly reporter light, replicate 2: 7.68e5; Renilla control light, replicate 1: 4.16e5; Renilla control light, replicate 2: 3.77e5; activity call: inactive

With Flad1 (Flavin adenine dinucleotide synthetase 1) [DRSC19898], what was measured?
firefly reporter light, replicate 1: 2320; firefly reporter light, replicate 2: 6422; Renilla control light, replicate 1: 737; Renilla control light, replicate 2: 2192; activity call: inactive

With Es2 [DRSC18663], how do the results read?
firefly reporter light, replicate 1: 2480; firefly reporter light, replicate 2: 9059; Renilla control light, replicate 1: 849; Renilla control light, replicate 2: 1703; activity call: inactive

With CG3091 [DRSC18274], how do the results read?
firefly reporter light, replicate 1: 20752; Renilla control light, replicate 1: 13460; activity call: inactive

For Gfrl (Glial cell line-derived neurotrophic family receptor-like) [DRSC15196], what was measured?
firefly reporter light, replicate 1: 13835; Renilla control light, replicate 1: 2850; activity call: inactive

With Gfrl (Glial cell line-derived neurotrophic family receptor-like) [DRSC15197], what was measured?
firefly reporter light, replicate 1: 4858; firefly reporter light, replicate 2: 6112; Renilla control light, replicate 1: 1584; Renilla control light, replicate 2: 2327; activity call: inactive

With Gfrl (Glial cell line-derived neurotrophic family receptor-like) [DRSC15199], how do the results read?
firefly reporter light, replicate 1: 23047; Renilla control light, replicate 1: 4006; activity call: inactive

How did the screen score Gfrl (Glial cell line-derived neurotrophic family receptor-like) [DRSC15565]?
firefly reporter light, replicate 1: 2265; firefly reporter light, replicate 2: 7573; Renilla control light, replicate 1: 1056; Renilla control light, replicate 2: 1900; activity call: inactive

With Gfrl (Glial cell line-derived neurotrophic family receptor-like) [DRSC15719], what was measured?
firefly reporter light, replicate 1: 13050; Renilla control light, replicate 1: 2362; activity call: inactive

Already shown: entries from further up.
CG10898 [DRSC14279] — firefly reporter light, replicate 1 = 5955; Renilla control light, replicate 1 = 2450; activity call = inactive
CCT2 (Chaperonin containing TCP1 subunit 2) [DRSC18415] — firefly reporter light, replicate 1 = 2393; firefly reporter light, replicate 2 = 3618; Renilla control light, replicate 1 = 658; Renilla control light, replicate 2 = 1392; activity call = inactive
Cpr65Ax2 + Cpr65Ax1 [DRSC10341] — firefly reporter light, replicate 1 = 3865; firefly reporter light, replicate 2 = 11073; Renilla control light, replicate 1 = 1452; Renilla control light, replicate 2 = 4171; activity call = inactive
Cpr65Ax2 + Cpr65Ax1 [DRSC10344] — firefly reporter light, replicate 1 = 1447; firefly reporter light, replicate 2 = 9334; Renilla control light, replicate 1 = 1169; Renilla control light, replicate 2 = 4029; activity call = inactive
